From PMC3432076 come the findings set out here.

Chains of the proteins cited; added tags and fusions are not shown. Lines headed by an entry give the natural chain unless they say otherwise; changes in a name come on top.
UniProt Q7RVQ8: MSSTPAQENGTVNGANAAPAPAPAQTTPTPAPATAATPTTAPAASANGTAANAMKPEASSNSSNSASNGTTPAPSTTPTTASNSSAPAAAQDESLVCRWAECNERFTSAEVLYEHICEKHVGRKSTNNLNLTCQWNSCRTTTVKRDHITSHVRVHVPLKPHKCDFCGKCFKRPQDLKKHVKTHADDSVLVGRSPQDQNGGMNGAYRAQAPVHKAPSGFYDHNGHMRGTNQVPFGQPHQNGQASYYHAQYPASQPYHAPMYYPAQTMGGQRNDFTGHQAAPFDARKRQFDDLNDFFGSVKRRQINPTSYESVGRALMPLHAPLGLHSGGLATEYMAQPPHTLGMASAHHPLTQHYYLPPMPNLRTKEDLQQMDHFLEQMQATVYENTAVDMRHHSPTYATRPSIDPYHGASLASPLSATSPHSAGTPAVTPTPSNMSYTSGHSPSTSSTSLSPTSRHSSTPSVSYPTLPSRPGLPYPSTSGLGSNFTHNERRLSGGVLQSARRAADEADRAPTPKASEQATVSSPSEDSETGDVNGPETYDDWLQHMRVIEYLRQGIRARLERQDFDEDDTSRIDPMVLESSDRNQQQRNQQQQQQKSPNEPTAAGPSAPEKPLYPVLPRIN

The target of series [1] is PACC, endogenous (heparin fraction, pH 5.8 mycelia) (Neurospora crassa wild type) (UniProt Q7RVQ8). Nature of the series: competition with a labelled probe. Particulars: pH 5.8 fraction, competes with pacC probe; EMSA: 25 mM HEPES-KOH pH 7.9, 20 mM KCl, 10% glycerol, 1 mM DTT, 0.2 mM EDTA, 0.5 mM PMSF, 12.5 mM benzamidine, 5 µg/mL antipain and pepstatin A, 2 µg poly(dI-dC); protein in an extract.

Series [2] deals with PACC, endogenous (heparin fraction, pH 7.8 mycelia, 60 min) (Neurospora crassa wild type) (UniProt Q7RVQ8). Nature of the series: competition with a labelled probe. Particulars: pH 7.8 fraction, competes only at 20- and 30-fold molar excess; EMSA: 25 mM HEPES-KOH pH 7.9, 20 mM KCl, 10% glycerol, 1 mM DTT, 0.2 mM EDTA, 0.5 mM PMSF, 12.5 mM benzamidine, 5 µg/mL antipain and pepstatin A, 2 µg poly(dI-dC); protein in an extract. (In general: Mobility shift assays separate free from complexed probe on a gel.)

For at least one entry, the source does not settle the construct or the ends of the probe. At least one result comes from cells or an extract, where the contact may be indirect.

“CTTTGGGCCAGCTTGGCCGTGAGATCG (double strand) [oligo pacC (27 bp)]”: the binding result in series [1] and in series [2] was “binds” in each case.
